Laboratory results as given in patent US7618952B2, “Silicon compounds with microbiocidal activity” (Syngenta Crop Protection, Inc., priority 2003, dated 2009).
Some entries share one result that the patent states for a list of compounds. Some compounds share one range, which may span the group rather than tell each member.

Assays:
Format in all cases: in vivo
Puccinia recondita [1] = experiment: Example B-1: action against Puccinia recondita/wheat (brownrust on wheat), preventive; conditions: wheat cv. Arina, spray 0.02% active ingredient, inoculated one day after application, assessed 10 days after inoculation
Podosphaera leucotricha = experiment: Example B-2: action against Podosphaera leucotricha/apple (powdery mildew on apple); conditions: apple seedlings cv. McIntosh, spray 0.02% active ingredient, inoculated one day after application, 12 days incubation
Ervsiphe graminis = experiment: Example B-3: action against Ervsiphe graminis/barley (powdery mildew on barley); conditions: barley cv. Regina, spray 0.02% active ingredient, inoculated one day after application, 6 days incubation
Botrytis cinerea = experiment: Example B-4: action against Botrytis cinerea/tomato (Botrytis on tomatoes); conditions: tomato cv. Roter Gnom, spray 0.02% active ingredient, inoculated two days after application, 4 days incubation
Altemaria solani = experiment: Example B-5: action against Altemaria solani/tomato (early blight on tomatoes); conditions: tomato cv. Roter Gnom, spray 0.02% active ingredient, inoculated two days after application, 3 days incubation
Septoria tritici = experiment: Example B-6: action against Septoria tritici/wheat (Septoria leaf spot on wheat); conditions: wheat cv. Riband, spray 0.02% active ingredient, inoculated one day after application, assessed 18 days after inoculation
Uncinula necator = experiment: Example B-7: action against Uncinula necator/rape (powdery mildew on grapes); conditions: grape seedlings cv. Gutedel, spray 0.02% active ingredient, inoculated one day after application, 7 days incubation
Venturia inaegualis = experiment: Example B-8: action against Venturia inaegualis/apple (scab on apple); conditions: apple seedlings cv. McIntosh, spray 0.02% active ingredient, inoculated one day after application
Puccinia recondita [2] = experiment: Example B-9: action against Puccinia recondita/wheat (brown rust on wheat), treatment two days after inoculation; conditions: wheat cv. Arina, inoculated two days before application (curative), further 8 days incubation

**Q.** What does the source list for `Cn1cc(C(=O)Nc2ccccc2C2CC2[Si](C)(C)C)c(C(F)F)n1` (racemic) [Compound 1.4]?
**A.** infestation (prevented virtually completely) (Puccinia recondita [1]): 0-5%; infestation (strong efficacy) (Podosphaera leucotricha): < 20%; infestation (strong efficacy) (Ervsiphe graminis): < 20%; disease incidence (good efficacy) (Botrytis cinerea): < 50%; disease incidence (good activity) (Altemaria solani): < 20%; disease incidence (good activity) (Septoria tritici): < 20%; disease incidence (good activity) (Uncinula necator): < 20%; infestation (strong efficacy) (Venturia inaegualis): < 20%; infestation (strong efficacy) (Puccinia recondita [2]): < 20%

**Q.** How did the “infestation (prevented virtually completely)” value (Puccinia recondita [1]) turn out when `Cc1nc(C(F)(F)F)c(C(=O)Nc2ccccc2C2CC2[Si](C)(C)C)s1` (racemic) [Compound 5.3] was run?
**A.** 0-5%

**Q.** What about the “infestation (strong efficacy)” value (Podosphaera leucotricha) of the same molecule?
**A.** < 20%

**Q.** What about the “infestation (strong efficacy)” value (Ervsiphe graminis) of the same molecule?
**A.** < 20%

**Q.** What about the “infestation (strong efficacy)” value (Puccinia recondita [2]) of the same molecule?
**A.** < 20%

**Q.** How did the “infestation (prevented virtually completely)” value (Puccinia recondita [1]) turn out when `Cn1cc(C(=O)Nc2ccccc2C2CC2[Si](C)(C)C)c(C(F)(F)F)n1` (stereo not drawn) [Compound 1.3] was run?
**A.** 0-5%

**Q.** And the “infestation (strong efficacy)” value (Podosphaera leucotricha)?
**A.** < 20%

**Q.** And the “infestation (strong efficacy)” value (Ervsiphe graminis)?
**A.** < 20%

**Q.** And the “disease incidence (good efficacy)” value (Botrytis cinerea)?
**A.** < 50%

**Q.** And the “disease incidence (good activity)” value (Altemaria solani)?
**A.** < 20%

**Q.** What about the “disease incidence (good activity)” value (Septoria tritici) of the same molecule?
**A.** < 20%

**Q.** And the “disease incidence (good activity)” value (Uncinula necator)?
**A.** < 20%

**Q.** What about the “infestation (strong efficacy)” value (Venturia inaegualis) of the same molecule?
**A.** < 20%

**Q.** And the “infestation (strong efficacy)” value (Puccinia recondita [2])?
**A.** < 20%

**Q.** What does the source list for `Cn1cc(C(=O)Nc2ccccc2C2CCC[Si](C)(C)C2)c(C(F)(F)F)n1` (stereo not drawn) [Compound 1.60a]?
**A.** infestation (prevented virtually completely) (Puccinia recondita [1]): 0-5%; infestation (strong efficacy) (Podosphaera leucotricha): < 20%; infestation (strong efficacy) (Ervsiphe graminis): < 20%; disease incidence (good efficacy) (Botrytis cinerea): < 50%; disease incidence (good activity) (Altemaria solani): < 20%; disease incidence (good activity) (Septoria tritici): < 20%; disease incidence (good activity) (Uncinula necator): < 20%; infestation (strong efficacy) (Venturia inaegualis): < 20%; infestation (strong efficacy) (Puccinia recondita [2]): < 20%

**Q.** Which “infestation (prevented virtually completely)” value (Puccinia recondita [1]) does the source give for `Cn1cc(C(=O)Nc2ccccc2C2CCC[Si](C)(C)C2)c(C(F)F)n1` (stereo not drawn) [Compound 1.61a] here?
**A.** 0-5%

**Q.** And the “infestation (strong efficacy)” value (Podosphaera leucotricha)?
**A.** < 20%

**Q.** And the “infestation (strong efficacy)” value (Ervsiphe graminis)?
**A.** < 20%

**Q.** What about the “disease incidence (good efficacy)” value (Botrytis cinerea) of the same molecule?
**A.** < 50%

**Q.** What about the “disease incidence (good activity)” value (Altemaria solani) of the same molecule?
**A.** < 20%

**Q.** And the “disease incidence (good activity)” value (Septoria tritici)?
**A.** < 20%

**Q.** And the “disease incidence (good activity)” value (Uncinula necator)?
**A.** < 20%

**Q.** What about the “infestation (strong efficacy)” value (Venturia inaegualis) of the same molecule?
**A.** < 20%

**Q.** What about the “infestation (strong efficacy)” value (Puccinia recondita [2]) of the same molecule?
**A.** < 20%

**Q.** Which results are given for `Cn1cc(C(=O)Nc2ccccc2-c2ccc(CC[Si](C)(C)C)cc2)c(C(F)(F)F)n1` [Compound 1.84]?
**A.** infestation (prevented virtually completely) (Puccinia recondita [1]): 0-5%; infestation (strong efficacy) (Podosphaera leucotricha): < 20%; infestation (strong efficacy) (Ervsiphe graminis): < 20%; disease incidence (good efficacy) (Botrytis cinerea): < 50%; infestation (strong efficacy) (Puccinia recondita [2]): < 20%
